{"sequences": {"note": "The chains behind the UniProt entries cited, without tags or fusion partners. Where a name states a change or a piece, a line headed by the entry shows the natural chain unless it says otherwise.", "UniProt P12830": "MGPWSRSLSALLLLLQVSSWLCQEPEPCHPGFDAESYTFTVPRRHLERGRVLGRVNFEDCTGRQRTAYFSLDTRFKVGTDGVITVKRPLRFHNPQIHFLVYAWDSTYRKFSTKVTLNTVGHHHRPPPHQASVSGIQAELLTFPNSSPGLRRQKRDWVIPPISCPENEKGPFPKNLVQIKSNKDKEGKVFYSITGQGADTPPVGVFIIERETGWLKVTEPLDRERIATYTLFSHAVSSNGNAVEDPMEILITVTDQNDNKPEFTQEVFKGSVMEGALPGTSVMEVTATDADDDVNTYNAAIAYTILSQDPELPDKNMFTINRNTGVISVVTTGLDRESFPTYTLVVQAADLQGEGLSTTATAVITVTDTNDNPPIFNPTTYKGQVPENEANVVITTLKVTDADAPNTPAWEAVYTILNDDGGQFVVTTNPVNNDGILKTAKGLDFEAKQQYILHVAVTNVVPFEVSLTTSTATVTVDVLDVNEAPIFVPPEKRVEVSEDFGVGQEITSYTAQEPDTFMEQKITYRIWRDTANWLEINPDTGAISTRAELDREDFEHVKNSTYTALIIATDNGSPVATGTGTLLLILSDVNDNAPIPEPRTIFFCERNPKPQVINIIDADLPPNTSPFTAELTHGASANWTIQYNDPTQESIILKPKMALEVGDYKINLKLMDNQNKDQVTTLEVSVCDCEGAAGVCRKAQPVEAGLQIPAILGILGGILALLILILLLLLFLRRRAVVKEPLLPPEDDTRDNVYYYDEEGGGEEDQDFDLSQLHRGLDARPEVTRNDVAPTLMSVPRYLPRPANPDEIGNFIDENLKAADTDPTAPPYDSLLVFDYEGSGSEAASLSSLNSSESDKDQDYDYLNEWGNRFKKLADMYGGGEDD"}, "source": "paper PMC6928865", "binders": {"B1": {"name": "catalytically inactive S186A derivative of mouse RHBDL2 (triple N-terminal HA-tag) (enzyme, UniProt A2AGA4 1-302)", "chain": "MAVAHEMEMESVNLNMEREGKEEPEEEKMKGNGEGKDFPRSRKVHRIVSKWMLPEPVRRTYLERANCLPPPLFIILISLAELAVFIYYAVWKPQKQWITLDTGILESPLTYCPEKREEAWRFISYMLVHAGVQHIVGNLLMQIVLGIPLEMVHKGLRVGLVYLAGVLAGSLASSIFDPLKSLVGAAGGVYALMGGYFMNVIVNFREMIPAFGIVRLLVIILIVASDMGFALYRRFFVPANGSPVSFAAHIAGGFAGMSIGYTVFSCFDKTLLKDPRFWIAIAAYVACLLFAVFFNIFLSPAN"}, "B2": {"name": "mouse RHBDL2, wild-type (triple N-terminal HA-tag) (enzyme, UniProt A2AGA4 1-302)", "chain": "B1 chain with A186S"}}, "biological_target": "E-cadherin (UniProt P12830)", "assay": "co-IP; lysates of transiently transfected HEK-293T cells (1% Triton X-100, 10 mM Tris pH 7.6, 50 mM NaCl, 0.1% BSA); Protein A-Sepharose beads coated with anti-E-cadherin or anti-RFP antibody, or unrelated antibody (Ig), 2 h at 4 °C; Western blot against the HA-tag", "note": "Positions count from the first letter of the chain named. Numbers in names are those of the source. No constants are given. Whether binding was seen depends on the method and setting. In cells and extracts the contact can be indirect. Binding calls can cover weak binding; strength is not graded here. Sequences can lack the tags named with a protein.", "data": [{"binder": "B1", "values": [{"measurement": "binding", "result": "binds"}]}, {"binder": "B2", "values": [{"measurement": "binding", "result": "no binding"}]}]}
